{"source": "PubChem BioAssay AID328", "about": "(DTP/NCI, 2004)", "tested_on": "BDF1 mice, P388 leukemia ip, median survival T/C", "experiment": "NCI In Vivo Anticancer Drug Screen. Data for tumor model P388 Leukemia (intraperitoneal) in B6D2F1 (BDF1) mice", "conditions": "T/C endpoint: median survival time, higher T/C = longer survival", "in_short": "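Read-out is survival of treated animals expressed relative to the vehicle group, as a T/C ratio.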", "key": {"[1]": {"conditions": "dose: 250.0 mg/kg/injection, schedule: Q01DX001 (ip), vehicle: Klucel (hydroxypropylcellulose) (HPC)"}}, "note": "The list does not hold the whole screen: it is rich in T/C values a quarter to a half above the control, in often repeated tests (any T/C) and in doses without a T/C. Other doses and runs of a compound stand elsewhere. T/C gives the treated animals as a percentage of the vehicle group. Some doses have a count of surviving animals in place of a T/C: the source holds a T/C of zero for them, seemingly a mark for toxic or unscored doses. Some doses without a T/C left all or most animals alive at the check, yet need not have been tolerated: survival well below the control is almost never listed, so the zero probably covers shortened survival too. Survivors were counted at the toxicity check, usually on the fifth day, unless a day is given; later deaths do not show. Schedules are NCI's codes, taken here to give the interval after Q, in days (D) or hours (H), and the number of doses after X. Some doses were run more than once; the results are listed from low to high. Where survival is the endpoint, this PubChem deposit counts one and a half times the control or more as active, and values a quarter to a half above the control carry no call in these data; other NCI protocols may use other cut-offs. Some T/C values carry the count of animals alive at the toxicity check (mostly the fifth day); where none is given, no animal had died by that day. Counts like (3×) give the number of equal values in this list.", "data": [{"smiles": "CCCCCCCCCCCCCCCC(=O)OCC1OC(n2ccc(N)nc2=O)C(O)C1O", "note": "(stereo not drawn)", "values": [{"measurement": "survivor count", "setting": "dose: 50.0 mg/kg/injection, schedule: Q01DX005 (ip), vehicle: Klucel (hydroxypropylcellulose) (HPC)", "value": "5 of 6 and 6 of 6"}, {"measurement": "T/C", "setting": "dose: 50.0 mg/kg/injection, schedule: Q01DX009 (ip), vehicle: Klucel (hydroxypropylcellulose) (HPC), evaluated on day 30", "value": "86, 90, 91, 93, 94, 98, 100, 103, 105, 106 (2×), 110, 111, 119 (3×), 121, 122, 125 (2×), 127 [2 of 3 alive], 133, 139, 242, 262 [5 of 6 alive], 263, 273, 274, 275 % of control"}, {"measurement": "T/C", "setting": "dose: 50.0 mg/kg/injection, schedule: Q01DX009 (ip), vehicle: Klucel (hydroxypropylcellulose) (HPC), evaluated on day 35", "value": "321 % of control"}, {"measurement": "survivor count", "setting": "dose: 50.0 mg/kg/injection, schedule: Q01DX009 (ip), vehicle: Klucel (hydroxypropylcellulose) (HPC)", "value": "3 of 3 and 6 of 6"}, {"measurement": "survivor count", "setting": "dose: 60.0 mg/kg/injection, schedule: Q01DX009 (ip), vehicle: saline with Tween-80", "value": "6 of 6"}, {"measurement": "T/C", "setting": "dose: 60.0 mg/kg/injection, schedule: Q04DX003 (ip), vehicle: saline with Tween-80, evaluated on day 5", "value": "207, 225, 369 % of control"}, {"measurement": "T/C", "setting": "dose: 60.0 mg/kg/injection, schedule: Q04DX003 (ip), vehicle: saline with Tween-80, evaluated on day 60", "value": "225 and 369 % of control"}, {"measurement": "T/C", "setting": "dose: 62.5 mg/kg/injection, schedule: Q01DX001 (ip), vehicle: Klucel (hydroxypropylcellulose) (HPC)", "value": "100, 105, 138, 139, 179 [2 of 3 alive], 184, 185, 189, 192, 196, 214, 216, 225, 227, 232, 237 (2×), 241, 245 (2×), 247, 250, 254, 264, 266, 267, 272, 277, 283, 287 % of control"}, {"measurement": "survivor count", "setting": "dose: 75.0 mg/kg/injection, schedule: Q01DX009 (ip), vehicle: saline with Tween-80", "value": "6 of 6"}, {"measurement": "T/C", "setting": "dose: 75.0 mg/kg/injection, schedule: Q04DX002 (ip), vehicle: Klucel (hydroxypropylcellulose) (HPC), evaluated on day 30", "value": "126, 196, 205, 206, 217, 236, 237, 241, 245, 245 [2 of 3 alive], 247, 250 (2×), 255, 258 (2×), 260 (2×), 262, 265 (2×), 270 (3×), 272, 276, 280, 288 % of control"}, {"measurement": "T/C", "setting": "dose: 75.0 mg/kg/injection, schedule: Q04DX002 (ip), vehicle: Klucel (hydroxypropylcellulose) (HPC), evaluated on day 35", "value": "264 % of control"}, {"measurement": "survivor count", "setting": "dose: 75.0 mg/kg/injection, schedule: Q04DX002 (ip), vehicle: Klucel (hydroxypropylcellulose) (HPC)", "value": "3 of 3"}, {"measurement": "T/C", "setting": "dose: 75.0 mg/kg/injection, schedule: Q04DX003 (ip), vehicle: Klucel (hydroxypropylcellulose) (HPC), evaluated on day 30", "value": "187, 195, 223, 225, 241, 245 (2×), 247, 250, 252, 254, 256 (2×), 260 (2×), 262, 265, 267 (2×), 270 (2×), 271, 272 (3×), 277 (2×), 283, 287, 291, 299 % of control"}, {"measurement": "T/C", "setting": "dose: 75.0 mg/kg/injection, schedule: Q04DX003 (ip), vehicle: Klucel (hydroxypropylcellulose) (HPC), evaluated on day 35", "value": "353 % of control"}, {"measurement": "T/C", "setting": "dose: 100.0 mg/kg/injection, schedule: Q01DX001 (ip), vehicle: saline with Tween-80, evaluated on day 5", "value": "198, 213, 322, 368 % of control"}, {"measurement": "T/C", "setting": "dose: 100.0 mg/kg/injection, schedule: Q01DX001 (ip), vehicle: saline with Tween-80, evaluated on day 60", "value": "185, 192, 198, 206, 213, 289, 322, 368, 535 % of control"}, {"measurement": "survivor count", "setting": "dose: 120.0 mg/kg/injection, schedule: Q01DX009 (ip), vehicle: saline with Tween-80", "value": "6 of 6"}, {"measurement": "T/C", "setting": "dose: 125.0 mg/kg/injection, schedule: Q01DX001 (ip), vehicle: Klucel (hydroxypropylcellulose) (HPC)", "value": "105, 111, 138, 157, 159, 163, 171, 234, 247 (2×), 250, 251, 256, 258, 265 (2×), 267 (3×), 272, 277, 280, 283, 284, 288 (2×), 291, 294, 297 % of control (2×)"}, {"measurement": "T/C", "setting": "dose: 125.0 mg/kg/injection, schedule: Q04DX002 (ip), vehicle: Klucel (hydroxypropylcellulose) (HPC)", "value": "129 % of control"}, {"measurement": "T/C", "setting": "dose: 150.0 mg/kg/injection, schedule: Q01DX001 (ip), vehicle: saline with Tween-80, evaluated on day 5", "value": "203, 207, 351, 578 % of control"}, {"measurement": "T/C", "setting": "dose: 150.0 mg/kg/injection, schedule: Q01DX001 (ip), vehicle: saline with Tween-80, evaluated on day 60", "value": "187, 198, 203, 207, 242, 307, 351, 357, 578 % of control"}, {"measurement": "T/C", "setting": "dose: 150.0 mg/kg/injection, schedule: Q04DX002 (ip), vehicle: Klucel (hydroxypropylcellulose) (HPC), evaluated on day 30", "value": "88, 90, 93, 94, 101, 112, 131, 138, 148, 162, 198, 228, 232, 238, 245, 247, 249, 250, 256, 258, 260, 277, 280 % of control"}, {"measurement": "T/C", "setting": "dose: 150.0 mg/kg/injection, schedule: Q04DX002 (ip), vehicle: Klucel (hydroxypropylcellulose) (HPC), evaluated on day 35", "value": "196 % of control"}, {"measurement": "survivor count", "setting": "dose: 150.0 mg/kg/injection, schedule: Q04DX002 (ip), vehicle: Klucel (hydroxypropylcellulose) (HPC)", "value": "2 of 3, 3 of 3, 6 of 6"}, {"measurement": "T/C", "setting": "dose: 150.0 mg/kg/injection, schedule: Q04DX003 (ip), vehicle: Klucel (hydroxypropylcellulose) (HPC), evaluated on day 30", "value": "86, 87, 90, 91, 92 (2×), 96, 97, 98, 99, 100, 101, 108 (2×), 110 (2×), 112, 117, 120, 130, 157, 163, 167, 188, 205, 250 (2×), 256, 297 % of control"}, {"measurement": "T/C", "setting": "dose: 150.0 mg/kg/injection, schedule: Q04DX003 (ip), vehicle: Klucel (hydroxypropylcellulose) (HPC), evaluated on day 35", "value": "352 % of control"}, {"measurement": "survivor count", "setting": "dose: 150.0 mg/kg/injection, schedule: Q04DX003 (ip), vehicle: Klucel (hydroxypropylcellulose) (HPC)", "value": "3 of 6 and 3 of 3"}, {"measurement": "T/C", "setting": "dose: 225.0 mg/kg/injection, schedule: Q01DX001 (ip), vehicle: saline with Tween-80, evaluated on day 5", "value": "205, 231, 581 % of control"}, {"measurement": "T/C", "setting": "dose: 225.0 mg/kg/injection, schedule: Q01DX001 (ip), vehicle: saline with Tween-80, evaluated on day 60", "value": "205, 231, 581 % of control"}, {"measurement": "T/C", "setting": "[1]", "value": "86, 88, 98, 108, 111, 126, 165, 168, 181 (2×), 183, 194, 200 [5 of 6 alive], 206, 217, 237, 250, 261, 265, 266 (2×), 267 [2 of 3 alive], 272, 277, 279, 288 (2×), 294, 297 % of control"}, {"measurement": "survivor count", "setting": "[1]", "value": "3 of 3"}, {"measurement": "survivor count", "setting": "dose: 250.0 mg/kg/injection, schedule: Q04DX002 (ip), vehicle: Klucel (hydroxypropylcellulose) (HPC)", "value": "3 of 3 and 6 of 6"}, {"measurement": "survivor count", "setting": "dose: 400.0 mg/kg/injection, schedule: Q04DX003 (ip), vehicle: saline with Tween-80", "value": "6 of 6"}]}]}
